The results in this text go back to doi:10.1101/2025.07.24.666629.

The chains behind the UniProt entries cited, without tags or fusion partners. Where a name states a change or a piece, a line headed by the entry shows the natural chain unless it says otherwise. Residues count along the entry.
UniProt P42858: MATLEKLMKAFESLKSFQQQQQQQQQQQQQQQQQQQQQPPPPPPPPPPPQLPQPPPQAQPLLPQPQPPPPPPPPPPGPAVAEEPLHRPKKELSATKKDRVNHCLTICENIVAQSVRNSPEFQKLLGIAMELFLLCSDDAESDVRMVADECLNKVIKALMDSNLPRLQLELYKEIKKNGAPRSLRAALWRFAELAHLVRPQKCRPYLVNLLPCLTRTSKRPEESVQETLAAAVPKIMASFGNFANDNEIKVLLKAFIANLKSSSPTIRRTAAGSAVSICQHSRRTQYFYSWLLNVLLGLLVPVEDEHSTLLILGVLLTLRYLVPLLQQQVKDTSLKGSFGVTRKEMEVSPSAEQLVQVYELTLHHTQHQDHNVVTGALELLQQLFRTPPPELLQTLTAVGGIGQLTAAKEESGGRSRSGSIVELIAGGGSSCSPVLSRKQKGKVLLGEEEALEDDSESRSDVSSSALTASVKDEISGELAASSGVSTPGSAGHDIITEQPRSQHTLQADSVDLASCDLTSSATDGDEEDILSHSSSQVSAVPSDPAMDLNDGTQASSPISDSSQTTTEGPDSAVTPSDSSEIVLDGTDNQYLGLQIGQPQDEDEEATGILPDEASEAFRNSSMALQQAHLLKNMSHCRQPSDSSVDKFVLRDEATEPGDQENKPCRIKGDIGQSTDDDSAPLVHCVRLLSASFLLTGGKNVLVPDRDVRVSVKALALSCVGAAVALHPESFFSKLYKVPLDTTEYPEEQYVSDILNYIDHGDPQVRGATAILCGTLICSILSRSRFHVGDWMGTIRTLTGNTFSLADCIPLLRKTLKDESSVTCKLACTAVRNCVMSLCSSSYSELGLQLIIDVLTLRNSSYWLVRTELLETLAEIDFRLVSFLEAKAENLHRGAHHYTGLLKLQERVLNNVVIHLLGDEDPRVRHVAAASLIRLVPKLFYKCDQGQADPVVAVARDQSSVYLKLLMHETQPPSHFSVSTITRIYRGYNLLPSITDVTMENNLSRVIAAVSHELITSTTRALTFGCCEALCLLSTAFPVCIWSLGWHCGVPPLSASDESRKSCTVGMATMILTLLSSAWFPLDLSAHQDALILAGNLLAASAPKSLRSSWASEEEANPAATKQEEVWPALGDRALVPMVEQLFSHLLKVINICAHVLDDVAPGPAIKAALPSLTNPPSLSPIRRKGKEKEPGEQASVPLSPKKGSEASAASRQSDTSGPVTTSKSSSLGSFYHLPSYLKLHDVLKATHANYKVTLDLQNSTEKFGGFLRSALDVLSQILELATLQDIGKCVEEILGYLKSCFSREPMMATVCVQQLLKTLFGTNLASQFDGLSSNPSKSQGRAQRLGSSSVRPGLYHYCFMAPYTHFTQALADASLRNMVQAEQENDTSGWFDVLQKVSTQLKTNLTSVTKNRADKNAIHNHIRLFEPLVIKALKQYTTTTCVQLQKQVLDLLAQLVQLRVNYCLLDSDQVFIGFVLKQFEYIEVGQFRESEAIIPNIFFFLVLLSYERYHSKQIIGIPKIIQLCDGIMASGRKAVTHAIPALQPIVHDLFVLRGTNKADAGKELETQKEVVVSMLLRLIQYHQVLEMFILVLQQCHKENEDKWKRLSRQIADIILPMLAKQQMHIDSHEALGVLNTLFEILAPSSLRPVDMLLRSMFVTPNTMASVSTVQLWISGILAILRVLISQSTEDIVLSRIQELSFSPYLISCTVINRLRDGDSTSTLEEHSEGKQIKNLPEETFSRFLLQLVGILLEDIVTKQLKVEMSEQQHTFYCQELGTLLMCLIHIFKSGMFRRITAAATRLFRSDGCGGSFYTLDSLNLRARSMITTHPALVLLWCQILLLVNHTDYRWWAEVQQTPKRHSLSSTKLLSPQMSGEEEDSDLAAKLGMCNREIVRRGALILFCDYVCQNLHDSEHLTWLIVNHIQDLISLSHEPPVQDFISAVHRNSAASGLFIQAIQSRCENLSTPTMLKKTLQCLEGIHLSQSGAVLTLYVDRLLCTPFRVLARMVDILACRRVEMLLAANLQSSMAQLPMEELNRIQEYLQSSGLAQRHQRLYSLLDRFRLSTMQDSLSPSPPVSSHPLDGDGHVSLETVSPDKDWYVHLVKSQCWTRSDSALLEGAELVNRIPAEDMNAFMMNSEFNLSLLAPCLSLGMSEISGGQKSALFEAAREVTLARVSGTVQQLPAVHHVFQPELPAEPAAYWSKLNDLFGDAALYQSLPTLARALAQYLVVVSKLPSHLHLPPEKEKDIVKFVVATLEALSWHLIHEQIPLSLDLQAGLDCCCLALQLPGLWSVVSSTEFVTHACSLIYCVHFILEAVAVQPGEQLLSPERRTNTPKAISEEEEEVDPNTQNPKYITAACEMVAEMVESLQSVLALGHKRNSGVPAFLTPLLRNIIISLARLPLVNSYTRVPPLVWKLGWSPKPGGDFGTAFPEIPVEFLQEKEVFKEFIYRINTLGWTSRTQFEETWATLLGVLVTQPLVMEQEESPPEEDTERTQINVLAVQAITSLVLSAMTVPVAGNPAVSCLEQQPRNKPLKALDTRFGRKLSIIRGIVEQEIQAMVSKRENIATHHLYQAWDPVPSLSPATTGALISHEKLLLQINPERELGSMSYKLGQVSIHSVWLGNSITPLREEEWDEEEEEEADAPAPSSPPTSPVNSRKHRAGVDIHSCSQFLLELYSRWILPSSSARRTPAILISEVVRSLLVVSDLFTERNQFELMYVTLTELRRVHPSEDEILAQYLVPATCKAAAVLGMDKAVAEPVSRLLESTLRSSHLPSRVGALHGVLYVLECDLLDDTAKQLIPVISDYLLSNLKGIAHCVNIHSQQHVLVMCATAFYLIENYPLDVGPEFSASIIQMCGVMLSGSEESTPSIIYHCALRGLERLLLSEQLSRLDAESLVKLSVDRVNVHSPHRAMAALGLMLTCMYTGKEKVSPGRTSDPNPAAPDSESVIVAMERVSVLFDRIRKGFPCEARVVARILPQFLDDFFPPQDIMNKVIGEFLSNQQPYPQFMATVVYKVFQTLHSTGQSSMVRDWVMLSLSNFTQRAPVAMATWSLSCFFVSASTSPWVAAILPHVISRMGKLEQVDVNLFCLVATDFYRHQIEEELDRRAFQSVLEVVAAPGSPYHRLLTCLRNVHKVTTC
UniProt P54098: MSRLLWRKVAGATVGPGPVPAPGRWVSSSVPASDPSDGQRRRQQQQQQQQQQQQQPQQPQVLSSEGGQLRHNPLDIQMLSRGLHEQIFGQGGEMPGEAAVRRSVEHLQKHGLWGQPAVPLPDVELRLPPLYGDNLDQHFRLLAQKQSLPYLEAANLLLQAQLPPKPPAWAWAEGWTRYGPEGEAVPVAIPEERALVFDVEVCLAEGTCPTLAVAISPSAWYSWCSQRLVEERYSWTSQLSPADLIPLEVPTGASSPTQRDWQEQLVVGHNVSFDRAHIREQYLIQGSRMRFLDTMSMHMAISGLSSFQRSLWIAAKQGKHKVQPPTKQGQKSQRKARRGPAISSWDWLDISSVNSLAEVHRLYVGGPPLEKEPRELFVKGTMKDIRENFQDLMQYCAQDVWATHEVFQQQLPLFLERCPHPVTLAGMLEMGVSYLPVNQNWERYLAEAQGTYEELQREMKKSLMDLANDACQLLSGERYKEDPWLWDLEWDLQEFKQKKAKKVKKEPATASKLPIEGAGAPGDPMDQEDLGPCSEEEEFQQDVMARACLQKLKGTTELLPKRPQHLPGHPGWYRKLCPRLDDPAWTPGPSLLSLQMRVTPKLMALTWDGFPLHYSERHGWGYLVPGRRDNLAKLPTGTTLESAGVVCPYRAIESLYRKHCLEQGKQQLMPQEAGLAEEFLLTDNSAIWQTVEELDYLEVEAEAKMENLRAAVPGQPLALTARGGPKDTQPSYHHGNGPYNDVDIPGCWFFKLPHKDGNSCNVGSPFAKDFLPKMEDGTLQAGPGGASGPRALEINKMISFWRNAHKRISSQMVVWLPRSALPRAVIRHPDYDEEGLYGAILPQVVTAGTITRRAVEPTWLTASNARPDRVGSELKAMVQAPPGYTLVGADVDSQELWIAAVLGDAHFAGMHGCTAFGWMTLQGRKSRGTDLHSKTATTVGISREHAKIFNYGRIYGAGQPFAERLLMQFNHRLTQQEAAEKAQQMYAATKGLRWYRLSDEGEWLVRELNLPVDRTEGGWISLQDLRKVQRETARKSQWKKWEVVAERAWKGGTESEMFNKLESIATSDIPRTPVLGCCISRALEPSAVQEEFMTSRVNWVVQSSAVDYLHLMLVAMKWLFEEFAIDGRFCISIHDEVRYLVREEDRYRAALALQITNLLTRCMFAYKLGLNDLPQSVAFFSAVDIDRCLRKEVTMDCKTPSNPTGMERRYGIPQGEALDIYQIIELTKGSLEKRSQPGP
UniProt O00411, residues 42-1230: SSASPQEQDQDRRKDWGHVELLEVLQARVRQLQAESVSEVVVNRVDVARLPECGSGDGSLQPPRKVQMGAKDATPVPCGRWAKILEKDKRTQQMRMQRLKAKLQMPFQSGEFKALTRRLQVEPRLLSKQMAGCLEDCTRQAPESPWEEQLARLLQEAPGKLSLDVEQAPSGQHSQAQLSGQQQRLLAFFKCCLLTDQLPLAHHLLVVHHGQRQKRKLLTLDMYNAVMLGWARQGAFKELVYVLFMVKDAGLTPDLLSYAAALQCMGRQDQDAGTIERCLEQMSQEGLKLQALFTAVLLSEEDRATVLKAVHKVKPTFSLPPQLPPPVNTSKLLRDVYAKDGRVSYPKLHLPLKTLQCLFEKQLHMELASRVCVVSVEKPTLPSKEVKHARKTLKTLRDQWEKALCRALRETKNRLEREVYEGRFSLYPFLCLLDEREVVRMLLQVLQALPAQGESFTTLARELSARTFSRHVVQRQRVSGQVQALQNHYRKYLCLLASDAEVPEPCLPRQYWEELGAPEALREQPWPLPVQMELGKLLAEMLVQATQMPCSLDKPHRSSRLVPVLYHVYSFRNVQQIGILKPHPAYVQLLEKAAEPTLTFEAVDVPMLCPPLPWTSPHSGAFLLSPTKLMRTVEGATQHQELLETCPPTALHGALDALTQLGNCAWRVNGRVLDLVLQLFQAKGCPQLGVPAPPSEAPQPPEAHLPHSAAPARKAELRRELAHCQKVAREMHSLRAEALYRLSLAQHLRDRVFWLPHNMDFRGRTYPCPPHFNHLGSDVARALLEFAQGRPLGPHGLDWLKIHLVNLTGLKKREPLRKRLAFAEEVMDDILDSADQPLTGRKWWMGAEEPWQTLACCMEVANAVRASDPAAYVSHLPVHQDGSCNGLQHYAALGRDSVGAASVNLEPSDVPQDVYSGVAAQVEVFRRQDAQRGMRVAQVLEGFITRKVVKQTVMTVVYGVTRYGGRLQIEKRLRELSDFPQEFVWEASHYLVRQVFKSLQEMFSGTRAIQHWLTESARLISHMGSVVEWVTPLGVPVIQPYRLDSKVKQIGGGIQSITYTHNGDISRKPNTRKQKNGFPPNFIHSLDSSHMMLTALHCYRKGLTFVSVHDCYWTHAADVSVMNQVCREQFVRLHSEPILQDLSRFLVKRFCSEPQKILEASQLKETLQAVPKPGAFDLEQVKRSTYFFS

Assay [1] deals with FLAG-tagged HTT-Q24 (SH-SY5Y, constitutively expressed) (human) (UniProt P42858). The assay is described as follows: co-IP; mitochondrial extracts of SH-SY5Y cells constitutively expressing FLAG-HTT-Q24 immunoprecipitated with anti-FLAG Ab (F3165); western blot for endogenous proteins. For orientation: Immunoblotting shows a protein as a band on a membrane.
The target of assay [2] is wtHTT-Q19 overexpressed in SH-SY5Y cells (FLAG-tagged full-length HTT) (human) (UniProt P42858). Kind of assay: proximity ligation; Duolink PLA on fixed, permeabilised SH-SY5Y cells (control cells and cells overexpressing wtHTT-Q19), without and with glucose oxidase (300 ng/mL, 30 min); mitochondria stained with MitoTracker Red; signals increased after glucose oxidase (HTT-TFAM 3 to 4-fold).

These are yes or no findings as the source states them, for the method shown. In cells and extracts the contact can be indirect. A result given as binding can be weak or reduced; the word gives no strength.

With “POLGA (catalytic subunit of mitochondria-specific DNA polymerase gamma), endogenous (from UniProt P54098 1-1239)”, in assay [1], the binding entry is on record as “binds”.

For the substance “mitochondrial RNA polymerase (POLRMT), endogenous (from UniProt O00411 42-1230)”, the binding result in assay [2] and in assay [1] was “binds” in each case.

In the case of “polynucleotide-kinase-3'-phosphatase (PNKP), endogenous (from UniProt Q96T60 1-521)”, the binding result in assay [2] and in assay [1] was “binds” in each case.
